Results deposited as PubChem BioAssay AID1159584 (Peter MacCallum Cancer Centre, 2016)
In all, the deposit lists about 18,000 reagents; shown is a part drawn at random. Not all columns of the deposit are shown. No sequences are given here. Not stated in the record: the amount of reagent, the time to read-out.

Assay: 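Genes that CDH1-null MCF10A cells selectively depend on to survive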 (primary screen)
System: human MCF10A breast epithelial cells, parental and CDH1-null
Reagents: siRNA against human genes
Measurement: 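ATP luminescence (CellTiter-Glo) viability per line relative to mean mock wells over all plates, and the ratio of CDH1-null to parental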
Reading the numbers: CDH1-null / parental viability ratio: higher = CDH1-null cells survive relatively better than parental

With CSNK1A1L (casein kinase 1 alpha 1 like), what was measured?
CDH1-null / parental viability ratio: 0.82

How did the screen score CCN3 (cellular communication network factor 3)?
CDH1-null / parental viability ratio: 1.05

For SERPING1 (serpin family G member 1), what was measured?
CDH1-null / parental viability ratio: 0.97

Which result is listed for CFAP61 (cilia and flagella associated protein 61)?
CDH1-null / parental viability ratio: 1.01

Which result is listed for BCL10 (BCL10 immune signaling adaptor)?
CDH1-null / parental viability ratio: 1.02

With LY6G5C (lymphocyte antigen 6 family member G5C), what does the deposit list?
CDH1-null / parental viability ratio: 0.98

What is on record for PTPRM (protein tyrosine phosphatase receptor type M)?
CDH1-null / parental viability ratio: 1.32

For SERINC1 (serine incorporator 1), what was measured?
CDH1-null / parental viability ratio: 1.11

What is on record for DNAJB8 (DnaJ heat shock protein family (Hsp40) member B8)?
CDH1-null / parental viability ratio: 0.92

For CHST1 (carbohydrate sulfotransferase 1), what was measured?
CDH1-null / parental viability ratio: 0.76

With TMEM9 (transmembrane protein 9), what was measured?
CDH1-null / parental viability ratio: 1

With CDCA2 (cell division cycle associated 2), what was measured?
CDH1-null / parental viability ratio: 0.76

How did the screen score MAPK7 (mitogen-activated protein kinase 7)?
CDH1-null / parental viability ratio: 0.97

What is on record for TMEM61 (transmembrane protein 61)?
CDH1-null / parental viability ratio: 0.93

2 entries already listed, ordered by “CDH1-null / parental viability ratio”, descending:
PTPRM (protein tyrosine phosphatase receptor type M) → CDH1-null / parental viability ratio = 1.32
LY6G5C (lymphocyte antigen 6 family member G5C) → CDH1-null / parental viability ratio = 0.98
